40 targets from the supplement of paper PMC7666118 can be followed below.

Chains of the proteins cited; added tags and fusions are not shown. Lines headed by an entry give the natural chain unless they say otherwise; changes in a name come on top.
UniProt Q13619, whole entry: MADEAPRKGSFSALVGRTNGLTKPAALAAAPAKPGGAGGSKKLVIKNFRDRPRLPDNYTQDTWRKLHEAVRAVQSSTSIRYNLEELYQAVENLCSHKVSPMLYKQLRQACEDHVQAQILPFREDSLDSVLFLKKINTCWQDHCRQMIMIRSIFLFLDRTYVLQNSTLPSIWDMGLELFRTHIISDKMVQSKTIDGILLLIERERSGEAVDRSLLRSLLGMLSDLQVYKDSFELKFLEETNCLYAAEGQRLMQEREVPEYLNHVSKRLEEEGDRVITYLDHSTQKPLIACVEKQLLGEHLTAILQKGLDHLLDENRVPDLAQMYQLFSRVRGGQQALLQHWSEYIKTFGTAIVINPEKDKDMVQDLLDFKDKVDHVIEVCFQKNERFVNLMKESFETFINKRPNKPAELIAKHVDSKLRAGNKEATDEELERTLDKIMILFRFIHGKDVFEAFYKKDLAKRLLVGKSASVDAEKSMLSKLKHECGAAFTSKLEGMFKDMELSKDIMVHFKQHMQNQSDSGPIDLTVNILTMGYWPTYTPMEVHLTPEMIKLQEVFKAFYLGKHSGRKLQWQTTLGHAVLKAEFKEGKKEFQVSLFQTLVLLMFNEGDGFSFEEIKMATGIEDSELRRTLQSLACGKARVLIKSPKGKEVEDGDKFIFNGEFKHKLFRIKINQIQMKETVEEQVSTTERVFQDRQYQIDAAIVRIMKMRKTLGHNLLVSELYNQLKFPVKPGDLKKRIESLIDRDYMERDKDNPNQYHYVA
UniProt Q6UX07: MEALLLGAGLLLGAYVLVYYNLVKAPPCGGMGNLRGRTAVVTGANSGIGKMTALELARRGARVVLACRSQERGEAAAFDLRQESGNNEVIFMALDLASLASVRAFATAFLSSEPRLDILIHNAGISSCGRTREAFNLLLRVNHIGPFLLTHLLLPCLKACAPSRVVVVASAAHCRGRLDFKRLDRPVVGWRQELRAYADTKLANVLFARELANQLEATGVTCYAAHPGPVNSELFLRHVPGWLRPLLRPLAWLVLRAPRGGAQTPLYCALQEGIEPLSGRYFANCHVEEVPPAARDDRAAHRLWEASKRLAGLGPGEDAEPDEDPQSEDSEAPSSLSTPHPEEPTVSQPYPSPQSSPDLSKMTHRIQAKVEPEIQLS
UniProt Q2TBE0: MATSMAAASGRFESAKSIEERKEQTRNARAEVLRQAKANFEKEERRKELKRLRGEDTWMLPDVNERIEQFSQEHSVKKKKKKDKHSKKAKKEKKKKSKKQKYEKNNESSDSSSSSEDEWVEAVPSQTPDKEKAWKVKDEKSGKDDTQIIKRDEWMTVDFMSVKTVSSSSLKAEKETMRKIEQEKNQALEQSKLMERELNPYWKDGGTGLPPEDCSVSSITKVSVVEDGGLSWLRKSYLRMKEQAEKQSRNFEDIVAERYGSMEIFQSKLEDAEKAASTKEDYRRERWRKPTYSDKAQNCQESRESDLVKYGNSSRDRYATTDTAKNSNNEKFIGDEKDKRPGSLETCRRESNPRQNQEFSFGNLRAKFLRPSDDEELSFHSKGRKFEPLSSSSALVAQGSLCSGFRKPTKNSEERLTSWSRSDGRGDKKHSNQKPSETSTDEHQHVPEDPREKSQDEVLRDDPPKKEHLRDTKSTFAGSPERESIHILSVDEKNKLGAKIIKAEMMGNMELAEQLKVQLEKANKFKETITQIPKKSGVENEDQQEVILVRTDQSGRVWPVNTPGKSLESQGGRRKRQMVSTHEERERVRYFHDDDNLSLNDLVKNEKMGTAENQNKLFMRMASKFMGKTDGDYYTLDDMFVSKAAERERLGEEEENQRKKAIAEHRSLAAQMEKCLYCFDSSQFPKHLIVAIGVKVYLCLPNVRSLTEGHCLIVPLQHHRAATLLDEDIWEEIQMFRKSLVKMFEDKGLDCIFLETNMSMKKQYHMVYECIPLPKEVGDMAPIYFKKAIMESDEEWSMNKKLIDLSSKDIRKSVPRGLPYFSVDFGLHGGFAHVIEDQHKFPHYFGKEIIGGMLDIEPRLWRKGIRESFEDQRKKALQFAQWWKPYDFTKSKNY
UniProt Q9P013: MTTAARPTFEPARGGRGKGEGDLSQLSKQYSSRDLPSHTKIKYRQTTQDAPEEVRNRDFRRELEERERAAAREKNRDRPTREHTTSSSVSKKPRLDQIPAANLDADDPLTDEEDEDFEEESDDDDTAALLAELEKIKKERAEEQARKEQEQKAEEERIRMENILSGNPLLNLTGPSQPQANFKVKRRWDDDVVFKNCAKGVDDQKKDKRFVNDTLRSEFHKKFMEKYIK
UniProt P14868: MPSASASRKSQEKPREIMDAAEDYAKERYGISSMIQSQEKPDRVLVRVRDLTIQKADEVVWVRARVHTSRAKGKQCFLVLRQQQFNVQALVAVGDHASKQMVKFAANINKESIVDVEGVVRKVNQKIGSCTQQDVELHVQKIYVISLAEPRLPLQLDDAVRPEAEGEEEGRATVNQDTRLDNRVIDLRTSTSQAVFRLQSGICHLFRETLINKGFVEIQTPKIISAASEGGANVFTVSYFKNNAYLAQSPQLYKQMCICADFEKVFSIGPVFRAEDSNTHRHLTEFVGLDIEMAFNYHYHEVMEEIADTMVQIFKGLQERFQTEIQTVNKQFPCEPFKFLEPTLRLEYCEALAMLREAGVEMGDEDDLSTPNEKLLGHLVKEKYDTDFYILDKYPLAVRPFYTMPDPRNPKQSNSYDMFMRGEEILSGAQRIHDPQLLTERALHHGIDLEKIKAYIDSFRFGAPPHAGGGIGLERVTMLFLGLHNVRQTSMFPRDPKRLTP
UniProt Q9HCG8: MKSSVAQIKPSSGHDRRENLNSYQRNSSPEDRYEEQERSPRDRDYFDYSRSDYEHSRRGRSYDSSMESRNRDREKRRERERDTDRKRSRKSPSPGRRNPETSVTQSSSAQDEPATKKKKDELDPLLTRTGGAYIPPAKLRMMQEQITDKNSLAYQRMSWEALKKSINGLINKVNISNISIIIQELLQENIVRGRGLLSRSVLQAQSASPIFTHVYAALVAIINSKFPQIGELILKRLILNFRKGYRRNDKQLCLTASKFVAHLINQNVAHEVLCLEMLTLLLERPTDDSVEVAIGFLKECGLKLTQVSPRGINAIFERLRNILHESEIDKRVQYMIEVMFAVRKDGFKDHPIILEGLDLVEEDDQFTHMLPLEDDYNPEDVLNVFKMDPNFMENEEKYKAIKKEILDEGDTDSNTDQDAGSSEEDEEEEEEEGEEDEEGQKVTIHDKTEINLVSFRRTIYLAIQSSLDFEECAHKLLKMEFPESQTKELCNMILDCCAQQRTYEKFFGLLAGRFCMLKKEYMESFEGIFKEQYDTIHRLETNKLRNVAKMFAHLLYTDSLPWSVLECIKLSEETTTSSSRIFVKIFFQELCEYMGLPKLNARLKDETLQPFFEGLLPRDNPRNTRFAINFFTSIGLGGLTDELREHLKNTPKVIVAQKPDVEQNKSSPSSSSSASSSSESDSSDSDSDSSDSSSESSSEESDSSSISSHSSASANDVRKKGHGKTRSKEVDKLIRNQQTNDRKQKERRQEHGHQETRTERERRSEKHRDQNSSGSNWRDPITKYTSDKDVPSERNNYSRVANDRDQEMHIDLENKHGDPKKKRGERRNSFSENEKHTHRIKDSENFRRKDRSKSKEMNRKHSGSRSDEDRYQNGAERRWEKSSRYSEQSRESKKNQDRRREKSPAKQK
UniProt O94830: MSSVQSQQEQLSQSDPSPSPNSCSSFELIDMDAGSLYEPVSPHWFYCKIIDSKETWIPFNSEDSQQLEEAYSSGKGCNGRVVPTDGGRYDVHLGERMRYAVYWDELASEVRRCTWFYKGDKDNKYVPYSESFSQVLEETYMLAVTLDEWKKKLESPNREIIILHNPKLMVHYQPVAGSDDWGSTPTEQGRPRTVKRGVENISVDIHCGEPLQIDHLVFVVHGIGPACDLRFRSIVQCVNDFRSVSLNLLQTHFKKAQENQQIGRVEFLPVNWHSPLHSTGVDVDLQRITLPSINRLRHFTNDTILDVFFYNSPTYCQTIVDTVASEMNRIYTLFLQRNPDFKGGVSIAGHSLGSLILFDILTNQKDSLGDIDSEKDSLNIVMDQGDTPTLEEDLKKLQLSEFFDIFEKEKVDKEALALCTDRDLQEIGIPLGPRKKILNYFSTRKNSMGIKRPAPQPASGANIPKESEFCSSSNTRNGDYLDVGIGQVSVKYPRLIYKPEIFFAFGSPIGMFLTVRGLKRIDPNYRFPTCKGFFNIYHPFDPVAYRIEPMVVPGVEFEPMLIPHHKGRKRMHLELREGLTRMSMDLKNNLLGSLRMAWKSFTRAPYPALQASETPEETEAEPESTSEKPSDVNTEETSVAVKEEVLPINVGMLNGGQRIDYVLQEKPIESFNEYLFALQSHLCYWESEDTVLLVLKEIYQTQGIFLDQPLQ
UniProt Q7Z449: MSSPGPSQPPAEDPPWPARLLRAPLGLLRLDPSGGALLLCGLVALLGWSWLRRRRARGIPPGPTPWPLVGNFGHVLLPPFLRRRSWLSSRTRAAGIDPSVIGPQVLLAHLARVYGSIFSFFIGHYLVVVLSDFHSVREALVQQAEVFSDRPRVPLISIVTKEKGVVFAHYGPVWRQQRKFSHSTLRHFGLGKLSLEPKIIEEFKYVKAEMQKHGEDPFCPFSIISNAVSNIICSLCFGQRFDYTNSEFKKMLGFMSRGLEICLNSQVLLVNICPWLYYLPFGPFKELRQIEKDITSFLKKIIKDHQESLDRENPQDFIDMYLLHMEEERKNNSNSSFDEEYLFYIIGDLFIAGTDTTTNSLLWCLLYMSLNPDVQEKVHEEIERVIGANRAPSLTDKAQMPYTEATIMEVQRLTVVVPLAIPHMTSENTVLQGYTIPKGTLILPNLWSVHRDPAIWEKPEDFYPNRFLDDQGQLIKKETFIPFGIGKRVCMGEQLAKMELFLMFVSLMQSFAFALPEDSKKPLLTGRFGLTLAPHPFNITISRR
UniProt Q8IX18: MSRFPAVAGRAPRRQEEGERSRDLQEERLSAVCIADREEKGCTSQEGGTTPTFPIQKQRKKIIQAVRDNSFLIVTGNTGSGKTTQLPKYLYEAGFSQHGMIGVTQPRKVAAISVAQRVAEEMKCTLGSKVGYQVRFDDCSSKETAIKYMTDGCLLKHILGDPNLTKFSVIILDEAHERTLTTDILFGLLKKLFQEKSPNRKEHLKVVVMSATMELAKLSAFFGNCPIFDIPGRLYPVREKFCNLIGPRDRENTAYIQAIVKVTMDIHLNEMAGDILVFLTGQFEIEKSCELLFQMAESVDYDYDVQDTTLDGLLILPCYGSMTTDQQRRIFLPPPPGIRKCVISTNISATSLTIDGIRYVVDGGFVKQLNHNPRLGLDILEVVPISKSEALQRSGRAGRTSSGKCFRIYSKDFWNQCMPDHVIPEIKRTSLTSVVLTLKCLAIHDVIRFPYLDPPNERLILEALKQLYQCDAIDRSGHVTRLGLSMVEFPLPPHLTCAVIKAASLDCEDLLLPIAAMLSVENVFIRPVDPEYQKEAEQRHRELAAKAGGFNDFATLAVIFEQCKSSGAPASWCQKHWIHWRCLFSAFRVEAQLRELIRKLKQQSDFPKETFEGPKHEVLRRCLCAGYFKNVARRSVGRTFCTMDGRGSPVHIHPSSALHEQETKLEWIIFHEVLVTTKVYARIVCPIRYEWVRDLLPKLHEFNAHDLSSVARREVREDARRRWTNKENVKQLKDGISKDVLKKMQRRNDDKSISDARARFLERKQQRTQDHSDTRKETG
UniProt P01040: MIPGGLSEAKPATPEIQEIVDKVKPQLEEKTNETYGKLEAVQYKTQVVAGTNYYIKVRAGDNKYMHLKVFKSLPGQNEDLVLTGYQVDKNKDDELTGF
UniProt P49366: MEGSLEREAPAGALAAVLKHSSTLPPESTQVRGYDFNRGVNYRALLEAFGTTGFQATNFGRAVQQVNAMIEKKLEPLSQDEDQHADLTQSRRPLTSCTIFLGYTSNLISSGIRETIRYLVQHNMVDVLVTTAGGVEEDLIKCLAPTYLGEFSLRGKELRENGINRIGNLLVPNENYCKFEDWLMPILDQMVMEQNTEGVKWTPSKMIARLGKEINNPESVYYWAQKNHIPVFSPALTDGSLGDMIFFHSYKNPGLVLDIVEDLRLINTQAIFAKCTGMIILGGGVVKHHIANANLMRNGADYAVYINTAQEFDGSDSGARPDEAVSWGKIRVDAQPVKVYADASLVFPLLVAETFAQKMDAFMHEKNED
UniProt P16989, whole entry: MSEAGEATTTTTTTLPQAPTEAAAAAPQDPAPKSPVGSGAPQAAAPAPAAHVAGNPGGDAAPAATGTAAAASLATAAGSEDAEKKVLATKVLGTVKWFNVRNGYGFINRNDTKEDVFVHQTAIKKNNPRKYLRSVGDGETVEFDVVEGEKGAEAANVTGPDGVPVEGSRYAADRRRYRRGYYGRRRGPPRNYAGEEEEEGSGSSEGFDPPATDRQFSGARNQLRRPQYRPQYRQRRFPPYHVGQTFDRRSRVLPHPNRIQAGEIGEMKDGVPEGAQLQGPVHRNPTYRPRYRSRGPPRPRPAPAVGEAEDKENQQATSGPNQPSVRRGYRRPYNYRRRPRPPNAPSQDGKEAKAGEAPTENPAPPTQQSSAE

Some of the results follow.

Compound in the assay: COc1ccc(Cn2ccc3cc(C)c(C(=O)NO)cc32)cc1
Briefly: dose-dependent thermal stabilisation call (2D-TPP, DLPTP, 10% FDR) (binary (1 = stabilised)); higher = stabilised by the compound. Particulars: system: HL-60 intact cells; concentration range 0.04-10 µM. How it is done:
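2D thermal proteome profiling in intact HL-60 cells treated with BRD-3811 (0, 0.04, 0.29, 2, 10 uM) for 90 min at 37 C, then heated 3 min at one of 12 temperatures (42-63.9 C). Soluble protein was quantified by TMT10 MS. The value is the DLPTP call of the paper: dose-dependent thermal stabilisation over all temperatures at 10% FDR (F-test of a dose-response against a flat model); one experiment, one call per tested protein.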
CUL4A (UniProt Q13619): the “dose-dependent thermal stabilisation call” value is inactive: 0.
With DHRS13 (UniProt Q6UX07), the “dose-dependent thermal stabilisation call” value was inactive: 0.
With DCK (UniProt P27707) the figure was inactive: 0.
Take CWF19L2 (UniProt Q2TBE0): the “dose-dependent thermal stabilisation call” value was inactive: 0.
With CWC15 (UniProt Q9P013) the figure was inactive: 0; with DARS (UniProt P14868), inactive: 0; with CXADR (UniProt P78310), inactive: 0.
Consider DNAJC17 (UniProt Q9NVM6), for which the “dose-dependent thermal stabilisation call” value was inactive: 0.
Regarding DBT (UniProt P11182), the “dose-dependent thermal stabilisation call” value was inactive: 0.
As to DHRS7B (UniProt Q6IAN0), the “dose-dependent thermal stabilisation call” value was inactive: 0.
With DNAJC10 (UniProt Q8IXB1) the figure was inactive: 0; with DNAJA2 (UniProt O60884), inactive: 0; with CWC22 (UniProt Q9HCG8), inactive: 0.
Turning to DNM2 (UniProt P50570), the “dose-dependent thermal stabilisation call” value was inactive: 0.
Turning to CTPS2 (UniProt Q9NRF8), the “dose-dependent thermal stabilisation call” value was inactive: 0.
For the target CSTF3 (UniProt Q12996), the “dose-dependent thermal stabilisation call” value is inactive: 0.
In the case of DLGAP5 (UniProt Q15398), the “dose-dependent thermal stabilisation call” value was inactive: 0.
With DOCK11 (UniProt Q5JSL3) the figure was inactive: 0; with DLG1 (UniProt Q12959), inactive: 0; with DDI2 (UniProt Q5TDH0), inactive: 0.
With DNAJC12 (UniProt Q9UKB3) the figure was inactive: 0.
With DERL1 (UniProt Q9BUN8) the figure was inactive: 0; with CTAGE5 (UniProt Q96PC5), inactive: 0; with DDAH1 (UniProt O94760), inactive: 0.
On to DDHD2 (UniProt O94830), for which the “dose-dependent thermal stabilisation call” value was inactive: 0.
Turning to DCTN1 (UniProt Q14203), the “dose-dependent thermal stabilisation call” value is inactive: 0.
On to CYP2U1 (UniProt Q7Z449), for which the “dose-dependent thermal stabilisation call” value was inactive: 0.
DHX40 (UniProt Q8IX18): the “dose-dependent thermal stabilisation call” value is inactive: 0.
With CSTA (UniProt P01040) the figure was inactive: 0; with DPF2 (UniProt Q92785), inactive: 0.
With DLGAP4 (UniProt Q9Y2H0) the figure was inactive: 0.
With CTNNBL1 (UniProt Q8WYA6) the figure was inactive: 0; with DHPS (UniProt P49366), inactive: 0; with CYBASC3 (UniProt Q8NBI2), inactive: 0.
With CTBP2 (UniProt P56545), the “dose-dependent thermal stabilisation call” value is inactive: 0.
Take DHCR24 (UniProt Q15392): the “dose-dependent thermal stabilisation call” value is inactive: 0.
With CTSB (UniProt P07858) the figure was inactive: 0; with CSDA (UniProt P16989), inactive: 0.
With DDX17 (UniProt Q92841) the figure was inactive: 0.
With DHX33 (UniProt Q9H6R0), the “dose-dependent thermal stabilisation call” value is inactive: 0.
